Reference: patent US8288378B2, “Phosphoinositide modulation for the treatment of neurodegenerative diseases” (The Trustees of Columbia University in the City of New York, priority 2006, dated 2012)
At least one compound was matched to its structure with a doubt left.

Test system: N2a cells stably expressing human APP with the Swedish mutation
Experiment: Aβ42/Aβ40 production in N2a cells stably expressing human APP with the Swedish mutation
Format: cell-based
Settings: 6 hours treatment
Description: N2a cells stably expressing human APP with the Swedish mutation were grown in DMEM-supplemented with 50% Opti-MEM, 10% FBS, penicillin, streptomycin, and G418. Cells were grown to 80-90% confluence and treated for 6 hours with the drugs as indicated in 900 μl media. The conditioned media was harvested and centrifuged for 15 minutes at 14,000 rpm in a table top Eppendorf centrifuge 5417R. The adherent cells were washed two times with ice cold PBS and lysed in 100 μl super IP buffer (10 mM Tris Cl, pH, 7.4, 150 mM NaCl, 2 mM EDTA, 1% Triton X-100, 0.25% NP-40, protease inhibitors). Cell lysates were scraped and incubated for 15 minutes on ice before centrifugation at 14,000 rpm in a table-top Eppendorf centrifuge 5417R. Cleared conditioned media and lysates were stored at −80° C. until use. Aβ 42 and Aβ40 were quantified with the commercially available kit from Biosource as indicated in the protocol. Protein concentration of the cell lysate was determined using the BCA assay from Pierce.
KU-55933 is a small molecule inhibitor of ATM kinase as well as PI3K family members (FIG. 22). […] Aβ 42 and Aβ40 were quantified with the commercially available kit from Biosource as indicated in the protocol. Protein concentration of the cell lysate was determined using the BCA assay from Pierce.

## COC[C@H]1OC(=O)c2coc3c2[C@@]1(C)C1=C(C3=O)[C@@H]2CCC(=O)[C@@]2(C)C[C@H]1OC(C)=O [wortmannin]
  production of Aβ42: able to inhibit the production of Aβ42
